From article PMC8386747, “Structure–activity relationship, in vitro and in vivo evaluation of novel dienyl sulphonyl fluorides as selective BuChE inhibitors for the treatment of Alzheimer's disease” (Journal of Enzyme Inhibition and Medicinal Chemistry, 2021)

Experiments:
PC12 cells = assay: Neuroprotection assay against H2O2 damage; type: cell-based; details: PC12, 100 µM H2O2 (model 47.3%); donepezil, concentration not given
Protocol: PC12 cells were distributed into 96-well plates at a density of 1 × 10^4 cells/well, and after the cells were incubated overnight, they were treated with different concentrations of compound A10 (1 − 25 µM) for 3 h. Then, 100 µM H2O2 was added as a cytotoxic stimulus, and the culture was continued for 24 h in fresh medium containing this drug. Cell survival was measured by MTT assay after 24 h. The cells were incubated with 20 µL of 5 mg/mL MTT reagent for 4 h. After 4 h, the cell culture medium was removed, and 150 µL of DMSO was added to dissolve formazan. The optical density at 492 nm (OD492) was measured on a BiotekSynergy HTX multimode reader. Results were adjusted for OD measured in blank.

Aβ1-42 = details: mouse, in vivo, po, 15 mg/kg
Protocol: In the experiment of Aβ1-42 oligomeric injury, all mice were sacrificed after the end of behavioural study, and the brains were taken to determine the total content of Aβ1-42 with a mouse ELISA kit (Wuhan Huamei Biotechnology Co., Ltd.). Each brain tissue specimen was completely homogenised with a grinder with 10 times PBS (pH = 7.4 ± 0.1) and then centrifuged at 5000×g for 5 min. The supernatant was separated for use. Brain tissue Aβ1-42 content was calculated according to the linear regression equation. All values were expressed as mean ± SEM using GraphPadPrism8.0 software.

COc1cc2c(cc1OC)C(=O)C(CC1CCN(Cc3ccccc3)CC1)C2 (centres unmarked) [Donepezil, donepezil, reference compound]
cell survival rate (PC12 cells): 71.2%
decrease of brain Aβ1-42 peptides (Aβ1-42): 14.7%
